## Results of single-concentration screens

Protein sequences, listed by entry. Tags and fused reporters are not part of them. Residues count along the entry.
UniProt Q4DA54, 1-478: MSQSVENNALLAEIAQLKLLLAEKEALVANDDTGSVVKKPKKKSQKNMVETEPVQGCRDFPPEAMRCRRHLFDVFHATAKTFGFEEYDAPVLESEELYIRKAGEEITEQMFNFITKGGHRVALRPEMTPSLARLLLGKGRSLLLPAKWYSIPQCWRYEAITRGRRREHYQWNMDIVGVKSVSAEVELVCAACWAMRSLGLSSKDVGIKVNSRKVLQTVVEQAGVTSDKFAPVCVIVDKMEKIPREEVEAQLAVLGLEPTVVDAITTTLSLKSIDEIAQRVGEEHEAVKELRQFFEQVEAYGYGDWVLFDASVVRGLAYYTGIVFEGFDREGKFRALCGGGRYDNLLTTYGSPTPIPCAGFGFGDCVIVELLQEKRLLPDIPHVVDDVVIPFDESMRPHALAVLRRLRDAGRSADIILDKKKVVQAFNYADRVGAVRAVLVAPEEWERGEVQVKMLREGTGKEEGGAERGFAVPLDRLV
UniProt P9WNZ1, whole entry: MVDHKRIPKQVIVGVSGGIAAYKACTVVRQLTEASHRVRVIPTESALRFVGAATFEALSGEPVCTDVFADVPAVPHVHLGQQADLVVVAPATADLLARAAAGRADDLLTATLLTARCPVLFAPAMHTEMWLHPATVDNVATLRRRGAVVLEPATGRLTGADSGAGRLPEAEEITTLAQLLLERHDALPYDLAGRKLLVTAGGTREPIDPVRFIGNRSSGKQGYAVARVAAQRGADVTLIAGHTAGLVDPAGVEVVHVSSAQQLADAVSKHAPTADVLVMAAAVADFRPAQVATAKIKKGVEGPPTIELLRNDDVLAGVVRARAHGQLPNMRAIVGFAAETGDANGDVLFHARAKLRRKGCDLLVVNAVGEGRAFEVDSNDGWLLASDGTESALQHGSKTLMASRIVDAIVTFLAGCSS
UniProt P9WPC5, whole entry: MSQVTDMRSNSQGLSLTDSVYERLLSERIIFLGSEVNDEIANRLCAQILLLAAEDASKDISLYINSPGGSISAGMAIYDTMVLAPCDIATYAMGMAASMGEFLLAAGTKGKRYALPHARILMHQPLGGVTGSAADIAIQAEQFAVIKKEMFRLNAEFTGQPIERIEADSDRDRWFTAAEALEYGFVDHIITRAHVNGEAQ
UniProt P9WPC3, whole entry partner: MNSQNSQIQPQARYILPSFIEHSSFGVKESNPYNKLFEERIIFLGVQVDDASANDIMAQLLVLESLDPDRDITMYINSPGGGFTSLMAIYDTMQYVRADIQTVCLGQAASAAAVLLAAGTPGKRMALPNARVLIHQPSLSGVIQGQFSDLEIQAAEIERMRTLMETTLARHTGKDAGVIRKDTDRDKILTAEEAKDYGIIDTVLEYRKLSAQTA
UniProt Q8IDJ8, 1-583: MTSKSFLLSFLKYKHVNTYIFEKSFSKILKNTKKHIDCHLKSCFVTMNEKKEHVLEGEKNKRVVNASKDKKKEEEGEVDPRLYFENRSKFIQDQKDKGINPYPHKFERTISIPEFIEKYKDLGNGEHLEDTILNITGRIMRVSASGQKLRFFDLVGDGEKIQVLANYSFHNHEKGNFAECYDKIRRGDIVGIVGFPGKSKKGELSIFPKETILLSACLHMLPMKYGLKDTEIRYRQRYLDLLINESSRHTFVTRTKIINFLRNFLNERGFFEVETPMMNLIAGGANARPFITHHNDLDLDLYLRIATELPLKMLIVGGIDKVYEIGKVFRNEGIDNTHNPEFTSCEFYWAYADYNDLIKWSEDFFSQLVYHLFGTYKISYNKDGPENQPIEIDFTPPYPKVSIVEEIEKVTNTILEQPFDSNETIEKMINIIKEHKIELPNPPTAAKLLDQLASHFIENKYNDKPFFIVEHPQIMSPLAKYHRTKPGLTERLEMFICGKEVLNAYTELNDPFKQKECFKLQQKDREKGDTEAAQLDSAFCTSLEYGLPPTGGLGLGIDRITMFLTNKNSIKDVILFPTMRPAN

The values are deposited in ChEMBL (CHEMBL3988442, “University of Dundee, Small-Polar-MMV Screening Library” (2021)).

A: 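Cell assay of Leishmania donovani living inside macrophages; the read-out is not stated. Tested at 30 µM. Higher reads as stronger inhibition (inferred: compounds with an IC50 in retests scored well above the rest). Of about 69,000 compounds tested this way, about 1,000 (1.5%) reached 50% or more in at least one test.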
B: 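Enzyme assay of histidyl-tRNA synthetase; the read-out is not stated. Target: Histidine-tRNA ligase, Trypanosoma cruzi CL Brener (UniProt Q4DA54). Tested at 30 µM. Direction is inferred from retests: higher values go with stronger inhibition. Size under these conditions: about 69,000 compounds, about 31 of them at 50% or above in at least one test.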
C: 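Enzyme assay of CoaBC with a phosphate dye (Biomol Green) read at 650 nm. Target: Coenzyme A biosynthesis protein CoaBC, Mycobacterium tuberculosis (UniProt P9WNZ1). Compounds at 30 µM. Higher reads as stronger inhibition, judged from the few compounds that gave an IC50. Most strong results did not repeat in a second test. Size under these conditions: about 67,000 compounds, about 40 of them at 50% or above in at least one test.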
D: 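ClpP1P2, Mycobacterium tuberculosis (UniProt P9WPC5 and UniProt P9WPC3). Protease assay of ClpP1P2, read by the AMC dye that it sets free. Concentration: 50 µM. Direction is inferred from only a few compounds that gave an IC50; most scored high, so higher reads as stronger inhibition. Most other retested compounds had strongly negative values. About 69,000 compounds were tested under these conditions; 0.015% (about 10) showed 50% or more at least once.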
E: 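Lysine-tRNA ligase, Plasmodium falciparum 3D7 (UniProt Q8IDJ8). Enzyme assay of the cytosolic lysyl-tRNA synthetase in 384-well plates, read by luminescence. Compounds at 30 µM. Higher reads as stronger inhibition, judged from the few compounds that gave an IC50. Of about 69,000 compounds tested this way, about 49 (0.071%) reached 50% or more in at least one test.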

Each number is a percent effect as filed.
The record does not define 0% and 100%; most values in the screen are far below 50% and negative numbers occur (in some assays of this library far below -100).
The compounds are a random part of those screened.
Two or more numbers in one place are separate tests of the same structure; such repeats can differ widely.

COCCc1nc(-c2cnn3c(C)cc(C)nc23)no1 read A: 37.07%; B: 5.521%; C: 2.689%; D: -7.401%; E: -0.6653%. For CC(=O)NCCNC(=O)NCc1ccc(-n2ccc(C(F)(F)F)n2)cc1 the result was A: 6.553%; B: 5.82%; C: -4.573%; D: 1.673%; E: -1.2%. Result for Cc1ccc(CN2CC(C(=O)NC(C)C)C3(CCOCC3)C2)s1.O=C(O)C(F)(F)F (stereo not given) was A: 17.16%. Result for O=C(O)c1cnc(N2CCCC2)nc1COc1ccc(F)cc1 was A: 2.308%; B: 9.845%; C: 7.292%; D: 7.865%; E: 0.4816%. CS(=O)(=O)NC1CCN(C(=O)CCC2CCCO2)CC1 (stereo not given) gave A: -43.2%; B: 3.175%; C: 1.033%; D: -4.948%; E: 4.873%. With CC(C)OCCN1CCc2cncnc2C1 the screen gave A: 25.94%; B: 36.78%; C: 2.583%; D: -28.19%; E: 12.1%. Result for Cc1ccc(CN(C)C(=O)c2cc3c(c(S(N)(=O)=O)c2)CCC3)o1 was A: 13.45%; B: 1.676%; C: -1.613%; D: -8.222%; E: 3.104%. With CN(C)c1ccc(C2CC(=O)Nc3c2cnn3Cc2ccco2)cc1 (stereo not given) the screen gave A: 7.757%; B: 5.941%; C: 4.237%; D: -13.12%; E: 2.987%.

NC(=O)C1CCN(C(=O)c2ccc(Sc3ccccn3)cc2)CC1 read A: 3.703%; B: 8.247%; C: -1.179%; D: 0.4274%; E: -1.813%. Result for O=C(O)C(F)(F)F.[H][C@]12CC[C@@]3(N=C(C)N(CC4CC4)C3=O)[C@@]1([H])CN(Cc1ccc(C)cc1)C2 was A: 11.81%. [H][C@@]12CCN(C(N)=O)C[C@]1([H])[C@@H](CNC(=O)c1ccnnc1)OC2 gave A: -16.59%. COc1ccc(Cl)cc1C(C(=O)O)N1CCSCC1 (stereo not given) gave A: 5.007%; B: 2.679%; C: 6.415%; D: -15.37%; E: 4.895%. With Cc1nc(O)cc(CN2C[C@H](NC(=O)C3CCC3)[C@@H](C3CC3)C2)n1 the screen gave A: 39.21%; B: 4.938%; C: -0.3681%; D: -5.826%; E: 2.702%. For C[C@]1(O)CCN(Cc2ncccc2F)C[C@@H]1Oc1ccccc1 the result was A: 14.24%; B: 6.844%; C: 5.068%; D: -12.79%; E: 2.446%. For Cc1cc(C)n(CC2CCCN2CCCS(C)(=O)=O)n1 (stereo not given) the result was A: 16.02%; B: 2.941%; C: 1.279%; D: -11.12%; E: 0.2935%. CC(Cn1cccn1)NC(=O)NCCc1cnn(C)c1 (stereo not given) gave A: 3.117%; B: 0%; C: 3.599%; D: -1.162%; E: 14.85%.

With CCOc1ccc(C(=O)Nc2c(C)nc3scc(C)n3c2=O)cc1 the screen gave A: 13.44%; B: 2.439%; C: 2.384%; D: -3.79%; E: 8.183%. For c1ccc(-c2ncc(CN3CCC4(CCNCC4)C3)cn2)cc1 the result was A: 24.37%; B: 6.077%; C: -26.79%; D: 0.5196%; E: 6.12%. Cc1n[nH]cc1CNCC(c1cccc(F)c1)N(C)C (stereo not given) read A: 23.1%; B: 6.806%; C: -7.923%; D: 4.288%; E: 1.103%. O=C(O)C(F)(F)F.O=C(O)C(F)(F)F.[H][C@@]12CCCO[C@]1([H])[C@H](NC(=O)CC1CC1)CN(Cc1ccccn1)C2 gave A: -4.377%. Cc1cc(NC(=O)C2CCN(c3ncccc3C#N)CC2)no1 gave A: -6.819%; B: -0.5525%; C: 1.058% and 70.7%; D: 2.426%; E: 1.297%. With O=C(Cn1ccc2cc(Br)ccc21)NCc1ccc(C(=O)O)cc1 the screen gave A: 13.49% and 21.89%; B: 3.659%; C: -0.7595%; D: -1.687%; E: 3.102%. Result for CCc1nc(CN2CCCN(C(=O)COCC3CC3)CC2)cs1 was A: 21.42%; B: -2.29%; C: 7.254%; D: 9.224%; E: 4.407%. For O=C(C1CC(c2ccccc2)=NO1)N1CCc2ccccc21 (stereo not given) the result was A: -6.766%; B: -8.036%; C: -2.893%; D: -3.474%; E: -0.5192%.

For CSCCC(=O)N1CCC(c2nnc(CN(C)CCO)n2C)CC1 the result was A: 25.55%; B: 7.821%; C: 0.2571%; D: -0.5743%; E: 4.204%. For CN1C(=O)C2(CCCN(C(=O)c3ccc(=O)n(C)n3)C2)c2ccccc21 (stereo not given) the result was A: 9.934%; B: -0.9901%; C: -0.1211%; D: 6.872%; E: 0.1609%. Cc1nn2c(N3CCC(O)C3)cc(-c3ccccc3)nc2c1C (stereo not given) gave A: 13.5%; B: -2.479%; C: 16.99%; D: -10.76%; E: 0.6746%. Result for CCOC(=O)N1CCC(N2Cc3ncccc3C2=O)CC1 was A: 10.62%; B: 5.202%; C: 1.241%; D: -7.8%; E: 5.054%. Result for COCCC1COC2(CCN(C(=O)c3ccccc3)CC2)C1 (stereo not given) was A: 25.56%; B: 8.824%; C: 1.25%; D: 16.44%; E: 5.777%.